Results from patent US20240368605A1, “USE OF SPLICE SWITCHING OLIGONUCLEOTIDES FOR EXON SKIPPING-MEDIATED KNOCKDOWN OF PIM2” (INSTITUT NATIONAL DE LA SANTÉ ET DE LA RECHERCHE MÉDICALE, priority 2021, published 2024).
No constants are given. Whether binding was seen depends on the method and setting. Some entries that bind do so weakly or less than the wild type.

Chains of the proteins cited; added tags and fusions are not shown. Residues count along the entry.
UniProt P38936, residues 2-164: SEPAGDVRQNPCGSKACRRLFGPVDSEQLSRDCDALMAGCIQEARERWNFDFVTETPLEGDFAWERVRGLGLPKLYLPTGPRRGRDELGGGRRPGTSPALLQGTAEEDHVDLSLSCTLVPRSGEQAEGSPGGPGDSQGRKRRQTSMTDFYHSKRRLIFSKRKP

Tests used:
[1] = molecular target: T1, Caspase 3 (human) (UniProt P42574); assay: immunoprecipitation from XG21 cells and PBs (data not shown)
T1 sequence (looked up): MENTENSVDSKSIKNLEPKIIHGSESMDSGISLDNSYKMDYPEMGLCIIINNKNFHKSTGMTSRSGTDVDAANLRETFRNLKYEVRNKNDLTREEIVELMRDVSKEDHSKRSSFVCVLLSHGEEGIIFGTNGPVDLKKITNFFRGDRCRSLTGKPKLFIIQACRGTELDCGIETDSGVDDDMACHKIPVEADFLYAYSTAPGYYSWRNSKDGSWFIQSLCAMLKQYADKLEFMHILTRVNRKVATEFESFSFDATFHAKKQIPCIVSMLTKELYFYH

[2] = molecular target: T1, Caspase 3 (human); assay: FRET in early plasma cells (ePCs) (data not shown)

binding [1]: binds
binding [2]: binds
Substance: p21^Cip1/WAF1 (from UniProt P38936 2-164)
